Assay results: patent US7361263B2, “Water treatment apparatus and method” (Sanyo Electric Co., Ltd., priority 2002, dated 2008)
Structures can show the parent of a compound that is named as a salt. At least one compound was matched to its structure with a doubt left.

Experiments:
[1] = High performance liquid chromatograph analysis of electrolyzed epirubicin hydrochloride solution; assay type: physicochemical
[2] = tested on: Escherichia coli (coliform bacillus) NIHJ JC-2; experiment: Test of antibacterial activity of epirubicin hydrochloride (MIC, small amount broth dilution); assay type: cell-based
Protocol: (§1) The pharmaceutical stock solution disclosed in the standard method was replaced with the samples of the present example for testing. As the culture medium for measuring sensitivity, Cation Supplemented Mueller-Hinton Broth: CSMHB (obtained from EIKEN CHEMICAL CO., LTD.) was employed. This CSMHB was poured 90 μl each into a U-shaped bottom 96-well microplate. Samples taken 0, 2, 4 and 6 hours from initiation of electrolysis described in the above 2 were prepared. A diluted solution of respective samples was prepared in accordance with the standard method. […] The bacilli used in the present example were identical to the two types of bacillus employed in Example 1, i.e. Staphylococcus aureus (staphylococcus bacteria) FDA […] and Escherichia coli (coliform bacillus) NIHJ JC-2. […] This solution was inoculated approximately 0.005 ml in each well of the plate set forth above within 15 minutes from preparation of the solution including bacillus. A medium not containing the agent was poured into 1-2-wells as the control of the development of bacillus. Cultivation was conducted for 18-24 hours at 35° C.

[3] = tested on: Staphylococcus aureus (staphylococcus bacteria) FDA 209P; experiment: as above; assay type: cell-based
Protocol: as §1

COc1cccc2c1C(=O)c1c(O)c3c(c(O)c1C2=O)C[C@@](O)(C(=O)CO)C[C@@H]3O[C@H]1C[C@H](N)[C@@H](O)[C@H](C)O1 [epirubicin hydrochloride]
Concentration of epirubicin hydrochloride ([1]; 0 hours from initiation of electrolysis (control)): 2000 µg/mL | Concentration of epirubicin hydrochloride ([1]; 2 hours, from peak area at approximately 3.6 minutes retention time): 4.45 µg/mL | Concentration of epirubicin hydrochloride ([1]; 4 hours, from peak area at approximately 3.6 minutes retention time): 5.79 µg/mL | Concentration of epirubicin hydrochloride ([1]; 6 hours, from peak area at approximately 3.6 minutes retention time): 4.70 µg/mL | antibacterial activity (in words) [2]: No antibacterial activity was recognized | relative MIC value (MIC at 0 hour set as 1) ([3]; electrolyzing time 4 hours): < 1/128 | relative MIC value (MIC at 0 hour set as 1) ([3]; electrolyzing time 6 hours): < 1/128 | antibacterial activity (in words) ([3]; staphylococcus bacteria): exhibits antibacterial activity on staphylococcus bacteria
